The text below walks through data of the supplement of paper PMC11006884.

Chains of the proteins cited; added tags and fusions are not shown. Lines headed by an entry give the natural chain unless they say otherwise; changes in a name come on top.
UniProt P11766: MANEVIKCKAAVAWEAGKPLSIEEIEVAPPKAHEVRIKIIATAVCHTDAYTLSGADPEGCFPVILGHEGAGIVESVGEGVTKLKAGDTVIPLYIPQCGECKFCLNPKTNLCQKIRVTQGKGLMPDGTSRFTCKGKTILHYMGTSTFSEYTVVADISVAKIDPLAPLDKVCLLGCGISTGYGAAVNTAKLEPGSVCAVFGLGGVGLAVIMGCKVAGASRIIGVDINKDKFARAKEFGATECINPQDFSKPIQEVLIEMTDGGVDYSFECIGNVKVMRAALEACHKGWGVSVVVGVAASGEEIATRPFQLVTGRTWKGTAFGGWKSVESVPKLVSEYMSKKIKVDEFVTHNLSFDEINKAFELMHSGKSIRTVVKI
UniProt P09622, whole entry, looked up: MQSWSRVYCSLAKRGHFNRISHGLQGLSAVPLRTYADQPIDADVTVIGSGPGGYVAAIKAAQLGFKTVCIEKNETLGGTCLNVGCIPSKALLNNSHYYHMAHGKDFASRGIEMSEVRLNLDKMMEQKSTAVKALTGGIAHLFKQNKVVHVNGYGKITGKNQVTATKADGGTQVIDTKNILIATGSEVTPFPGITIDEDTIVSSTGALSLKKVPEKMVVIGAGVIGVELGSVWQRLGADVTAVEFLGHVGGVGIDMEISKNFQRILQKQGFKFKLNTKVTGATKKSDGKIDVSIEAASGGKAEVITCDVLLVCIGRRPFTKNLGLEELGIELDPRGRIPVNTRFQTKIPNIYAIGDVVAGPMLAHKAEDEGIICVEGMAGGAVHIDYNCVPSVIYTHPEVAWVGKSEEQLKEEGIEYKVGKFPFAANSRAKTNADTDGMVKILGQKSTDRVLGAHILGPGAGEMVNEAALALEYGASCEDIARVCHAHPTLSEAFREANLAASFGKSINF
UniProt P15531, whole entry, looked up: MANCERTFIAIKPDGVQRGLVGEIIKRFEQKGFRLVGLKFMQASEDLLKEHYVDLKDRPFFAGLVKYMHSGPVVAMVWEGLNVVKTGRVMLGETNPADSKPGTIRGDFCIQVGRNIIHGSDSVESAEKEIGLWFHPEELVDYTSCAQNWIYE
UniProt P15170, whole entry, looked up: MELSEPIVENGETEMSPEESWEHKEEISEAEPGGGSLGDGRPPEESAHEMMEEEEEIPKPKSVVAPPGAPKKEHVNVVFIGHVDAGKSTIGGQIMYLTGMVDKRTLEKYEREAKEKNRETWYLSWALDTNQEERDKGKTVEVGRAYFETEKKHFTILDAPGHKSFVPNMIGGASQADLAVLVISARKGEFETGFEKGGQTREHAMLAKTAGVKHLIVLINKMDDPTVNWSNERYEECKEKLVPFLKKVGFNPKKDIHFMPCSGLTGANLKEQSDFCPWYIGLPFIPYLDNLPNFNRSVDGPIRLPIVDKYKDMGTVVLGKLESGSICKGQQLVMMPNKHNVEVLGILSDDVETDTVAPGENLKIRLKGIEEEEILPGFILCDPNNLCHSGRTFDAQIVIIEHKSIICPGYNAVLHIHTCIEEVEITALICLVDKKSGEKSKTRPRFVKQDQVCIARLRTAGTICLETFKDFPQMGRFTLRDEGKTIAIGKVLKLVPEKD
UniProt P13010: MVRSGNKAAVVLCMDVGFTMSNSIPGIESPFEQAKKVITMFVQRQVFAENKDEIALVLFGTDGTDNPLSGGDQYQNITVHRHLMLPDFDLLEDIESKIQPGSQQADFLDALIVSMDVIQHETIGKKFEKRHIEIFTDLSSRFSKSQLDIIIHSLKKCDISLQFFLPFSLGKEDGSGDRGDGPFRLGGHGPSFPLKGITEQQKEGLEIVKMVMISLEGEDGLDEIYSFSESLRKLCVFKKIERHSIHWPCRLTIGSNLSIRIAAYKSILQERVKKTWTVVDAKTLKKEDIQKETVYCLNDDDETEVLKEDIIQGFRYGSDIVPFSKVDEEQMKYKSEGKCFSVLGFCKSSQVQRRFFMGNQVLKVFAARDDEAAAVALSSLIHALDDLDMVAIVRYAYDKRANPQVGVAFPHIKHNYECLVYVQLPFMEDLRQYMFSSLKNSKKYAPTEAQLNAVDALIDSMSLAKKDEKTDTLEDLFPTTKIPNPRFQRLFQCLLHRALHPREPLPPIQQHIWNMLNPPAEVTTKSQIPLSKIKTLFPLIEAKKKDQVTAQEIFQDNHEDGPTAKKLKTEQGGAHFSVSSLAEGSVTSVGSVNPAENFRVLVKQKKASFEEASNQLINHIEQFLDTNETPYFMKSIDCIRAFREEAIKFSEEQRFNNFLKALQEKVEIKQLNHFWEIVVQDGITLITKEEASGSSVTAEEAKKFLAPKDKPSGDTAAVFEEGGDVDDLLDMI
UniProt P12270, whole entry, looked up: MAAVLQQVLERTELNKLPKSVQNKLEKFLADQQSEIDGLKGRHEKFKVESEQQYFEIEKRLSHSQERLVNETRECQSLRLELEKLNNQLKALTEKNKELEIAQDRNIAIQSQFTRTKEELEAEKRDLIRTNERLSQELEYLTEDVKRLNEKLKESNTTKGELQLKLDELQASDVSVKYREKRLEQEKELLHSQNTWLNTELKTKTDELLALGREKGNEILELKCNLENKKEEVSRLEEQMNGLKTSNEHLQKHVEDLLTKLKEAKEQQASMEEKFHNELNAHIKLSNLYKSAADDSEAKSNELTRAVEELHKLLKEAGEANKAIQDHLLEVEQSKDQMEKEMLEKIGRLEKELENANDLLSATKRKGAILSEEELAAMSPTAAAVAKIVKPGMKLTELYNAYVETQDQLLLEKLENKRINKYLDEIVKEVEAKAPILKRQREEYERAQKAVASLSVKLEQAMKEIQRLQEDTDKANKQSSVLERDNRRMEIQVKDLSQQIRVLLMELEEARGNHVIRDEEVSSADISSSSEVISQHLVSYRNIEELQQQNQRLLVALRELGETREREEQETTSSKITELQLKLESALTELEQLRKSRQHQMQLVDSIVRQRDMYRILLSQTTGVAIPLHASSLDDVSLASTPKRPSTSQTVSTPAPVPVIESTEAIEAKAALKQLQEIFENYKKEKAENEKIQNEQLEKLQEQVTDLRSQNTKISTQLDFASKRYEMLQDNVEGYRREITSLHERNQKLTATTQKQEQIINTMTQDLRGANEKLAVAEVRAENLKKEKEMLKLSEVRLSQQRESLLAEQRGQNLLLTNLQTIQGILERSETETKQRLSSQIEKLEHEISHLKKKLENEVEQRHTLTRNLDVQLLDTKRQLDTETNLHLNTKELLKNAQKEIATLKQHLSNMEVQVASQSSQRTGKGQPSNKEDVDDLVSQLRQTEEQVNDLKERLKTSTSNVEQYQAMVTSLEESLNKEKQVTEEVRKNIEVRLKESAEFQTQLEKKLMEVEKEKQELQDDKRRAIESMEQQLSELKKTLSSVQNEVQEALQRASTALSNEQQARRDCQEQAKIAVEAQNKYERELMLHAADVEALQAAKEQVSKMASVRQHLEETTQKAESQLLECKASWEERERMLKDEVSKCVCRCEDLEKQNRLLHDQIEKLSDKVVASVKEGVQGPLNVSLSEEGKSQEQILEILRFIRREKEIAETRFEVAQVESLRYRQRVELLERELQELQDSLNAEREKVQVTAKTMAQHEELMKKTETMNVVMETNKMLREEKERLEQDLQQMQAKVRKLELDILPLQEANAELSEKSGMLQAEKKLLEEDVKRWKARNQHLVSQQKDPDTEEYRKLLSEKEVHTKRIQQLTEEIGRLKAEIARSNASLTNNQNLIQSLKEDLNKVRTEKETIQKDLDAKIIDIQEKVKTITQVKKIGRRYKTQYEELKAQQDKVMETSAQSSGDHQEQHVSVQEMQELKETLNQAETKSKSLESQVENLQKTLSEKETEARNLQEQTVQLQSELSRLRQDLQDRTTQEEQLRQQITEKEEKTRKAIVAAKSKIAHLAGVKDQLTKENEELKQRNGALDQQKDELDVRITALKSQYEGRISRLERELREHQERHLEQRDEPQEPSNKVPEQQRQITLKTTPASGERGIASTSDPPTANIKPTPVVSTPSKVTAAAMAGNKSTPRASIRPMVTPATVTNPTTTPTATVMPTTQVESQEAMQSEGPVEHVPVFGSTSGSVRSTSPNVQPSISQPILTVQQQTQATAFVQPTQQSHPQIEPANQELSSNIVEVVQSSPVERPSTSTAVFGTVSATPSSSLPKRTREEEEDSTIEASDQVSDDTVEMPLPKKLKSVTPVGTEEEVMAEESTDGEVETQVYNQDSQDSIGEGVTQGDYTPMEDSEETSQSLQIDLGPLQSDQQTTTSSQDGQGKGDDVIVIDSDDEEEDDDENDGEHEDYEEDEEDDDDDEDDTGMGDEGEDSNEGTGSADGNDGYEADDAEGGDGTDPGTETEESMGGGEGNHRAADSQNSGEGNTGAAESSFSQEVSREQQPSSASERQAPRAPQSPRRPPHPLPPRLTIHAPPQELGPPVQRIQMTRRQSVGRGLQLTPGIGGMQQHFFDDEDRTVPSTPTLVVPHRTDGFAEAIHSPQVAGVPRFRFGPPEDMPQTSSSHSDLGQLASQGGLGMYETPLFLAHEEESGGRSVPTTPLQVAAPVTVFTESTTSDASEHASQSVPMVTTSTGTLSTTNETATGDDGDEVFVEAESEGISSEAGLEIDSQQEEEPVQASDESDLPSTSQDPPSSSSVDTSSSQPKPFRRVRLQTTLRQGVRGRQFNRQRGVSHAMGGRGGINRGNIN
UniProt P08134, whole entry: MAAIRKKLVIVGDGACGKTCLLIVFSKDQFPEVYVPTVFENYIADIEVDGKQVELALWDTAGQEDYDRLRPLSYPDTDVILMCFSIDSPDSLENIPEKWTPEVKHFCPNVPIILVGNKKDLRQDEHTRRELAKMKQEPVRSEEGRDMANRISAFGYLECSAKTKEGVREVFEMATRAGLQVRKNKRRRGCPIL
UniProt P11940, whole entry, looked up: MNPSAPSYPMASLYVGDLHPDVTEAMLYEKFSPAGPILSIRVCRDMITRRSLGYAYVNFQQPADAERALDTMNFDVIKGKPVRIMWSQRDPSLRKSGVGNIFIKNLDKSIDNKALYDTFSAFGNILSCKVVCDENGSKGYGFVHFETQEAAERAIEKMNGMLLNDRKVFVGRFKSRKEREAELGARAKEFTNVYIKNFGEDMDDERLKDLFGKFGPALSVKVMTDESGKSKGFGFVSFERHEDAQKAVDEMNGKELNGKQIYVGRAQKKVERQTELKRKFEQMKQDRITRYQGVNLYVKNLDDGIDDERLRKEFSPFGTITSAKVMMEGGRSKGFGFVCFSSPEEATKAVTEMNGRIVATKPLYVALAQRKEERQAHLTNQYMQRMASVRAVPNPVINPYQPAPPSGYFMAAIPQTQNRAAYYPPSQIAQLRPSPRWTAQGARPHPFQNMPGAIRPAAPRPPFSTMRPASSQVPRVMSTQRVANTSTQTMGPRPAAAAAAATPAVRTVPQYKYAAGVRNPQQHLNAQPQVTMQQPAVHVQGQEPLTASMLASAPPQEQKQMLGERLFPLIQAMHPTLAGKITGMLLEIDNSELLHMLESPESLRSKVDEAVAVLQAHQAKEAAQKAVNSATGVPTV
UniProt P14314: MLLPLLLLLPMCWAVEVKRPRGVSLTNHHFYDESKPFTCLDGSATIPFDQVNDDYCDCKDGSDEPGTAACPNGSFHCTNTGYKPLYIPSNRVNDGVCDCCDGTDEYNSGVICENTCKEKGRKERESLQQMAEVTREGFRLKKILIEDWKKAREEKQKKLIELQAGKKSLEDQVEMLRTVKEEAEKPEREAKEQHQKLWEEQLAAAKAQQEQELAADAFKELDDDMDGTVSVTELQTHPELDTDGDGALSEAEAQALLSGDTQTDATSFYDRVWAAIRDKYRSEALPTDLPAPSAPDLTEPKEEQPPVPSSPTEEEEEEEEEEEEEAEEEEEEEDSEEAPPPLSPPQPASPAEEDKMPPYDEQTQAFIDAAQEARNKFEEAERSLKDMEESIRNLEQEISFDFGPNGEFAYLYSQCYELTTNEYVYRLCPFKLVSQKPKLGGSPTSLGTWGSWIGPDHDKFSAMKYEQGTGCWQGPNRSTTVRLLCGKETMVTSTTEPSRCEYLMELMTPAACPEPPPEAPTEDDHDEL
UniProt P07954: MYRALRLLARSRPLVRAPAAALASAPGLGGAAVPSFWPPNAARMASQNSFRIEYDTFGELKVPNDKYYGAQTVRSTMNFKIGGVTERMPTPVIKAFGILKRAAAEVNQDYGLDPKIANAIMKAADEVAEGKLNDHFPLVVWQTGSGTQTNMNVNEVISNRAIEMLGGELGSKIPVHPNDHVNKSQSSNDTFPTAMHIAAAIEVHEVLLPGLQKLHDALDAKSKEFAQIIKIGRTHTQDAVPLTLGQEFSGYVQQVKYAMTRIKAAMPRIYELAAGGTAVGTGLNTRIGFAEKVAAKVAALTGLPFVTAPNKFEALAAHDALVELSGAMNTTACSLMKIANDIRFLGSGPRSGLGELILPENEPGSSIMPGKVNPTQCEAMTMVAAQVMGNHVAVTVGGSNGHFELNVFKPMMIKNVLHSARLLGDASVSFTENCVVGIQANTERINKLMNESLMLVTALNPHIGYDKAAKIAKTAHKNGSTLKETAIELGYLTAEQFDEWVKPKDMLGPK

Only a part is listed here, and it is no random draw. Single values of this set are uncertain.

Compound in the assay: COC(=O)/C=C/c1ccccc1 [methyl cinnamate]
As to the kind of experiment: log2 ratio of iodoacetamide-alkyne labeling of the cysteine site, DMSO over compound (competition); higher = stronger covalent engagement of the cysteine by the compound, active = 1 or more. The note with it: 500 µM; treatment time 1 h; system: HEK293T cell lysate. Summed up: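 Three replicates, each with duplicate channels, were prepared from HEK293T lysate (2 mg/mL) treated with vehicle or electrophile at 500 µM for 1 h at ambient temperature. Iodoacetamide alkyne was then applied for 1 h, and samples were clicked to sCIP-TMT reagents, pooled, trypsin-digested overnight at 37 °C, enriched on streptavidin, acid-eluted and analysed on Orbitrap Eclipse LC-MS/MS with FAIMS, with FragPipe quantification. The log2 competition ratio per cysteine is the mean control-channel divided by the mean compound-channel reporter intensity. Cysteines quantified in only one replicate were left out.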
UniProt P14618_C424: the “log2 ratio of iodoacetamide-alkyne labeling” value (“log2 ratio” for short) is inactive: -0.379.

For the target ADH5 C97 (UniProt P11766), the “log2 ratio” value is inactive: 0.361.

For DLD C477 (UniProt P09622), the “log2 ratio” value was inactive: -0.00307.

Consider HSP90AA1 C597 (UniProt P07900), for which the “log2 ratio” value is inactive: 0.00249.

Consider NME1 C145 (UniProt P15531), for which the “log2 ratio” value is inactive: 0.119.

Consider GSPT1 C276 (UniProt P15170), for which the “log2 ratio” value was inactive: 0.0118.

As for UniProt P0DMV8_C306, the “log2 ratio” value was inactive: 0.179.

Consider HSP90AB1 C589 (UniProt P08238), for which the “log2 ratio” value is inactive: 0.134.

In the case of AKR1B1 C299 (UniProt P15121), the “log2 ratio” value was inactive: -0.035.

As for XRCC5 C296 (UniProt P13010), the “log2 ratio” value is inactive: -0.062.

With TPR C1068 (UniProt P12270), the “log2 ratio” value is inactive: 0.0972.

On to UniProt P08134_C107, for which the “log2 ratio” value was inactive: -0.128.

Consider PABPC1 C132 (UniProt P11940), for which the “log2 ratio” value was inactive: 0.116.

On to EPRS C92 (UniProt P07814), for which the “log2 ratio” value is inactive: 0.337.

Take PRKCSH C471 (UniProt P14314): the “log2 ratio” value was inactive: -0.0369.

Consider FH C434 (UniProt P07954), for which the “log2 ratio” value is inactive: 0.194.
